# Laboratory results from PubChem BioAssay AID330 (DTP/NCI, 2004).
# The list does not hold the whole screen: it is rich in T/C values a quarter to a half above the control, in often repeated tests (any T/C) and in doses without a T/C. Further doses and runs are listed elsewhere. T/C: endpoint of the treated group in % of that of the vehicle group. Some entries give survivors of the animals treated and no T/C: the source files T/C as zero there, which appears to mark a toxic dose or a test without result, not a measured value. Some survivor counts are full or nearly so, which does not show that the dose was tolerated: survival well below the control is almost never listed, so the zero probably covers shortened survival too. Survivors were counted at the toxicity check, usually on the fifth day, unless a day is given; later deaths do not show. Schedule codes are those of the source, taken here to give the interval after Q, in days (D) or hours (H), and the number of doses after X. Some entries were tested several times; their values stand side by side, smallest first. Where survival is the endpoint, this PubChem deposit counts one and a half times the control or more as active, and values a quarter to a half above the control carry no call in these data; other NCI protocols may use other cut-offs. Some T/C values carry the count of animals alive at the toxicity check (mostly the fifth day); without a count, all were alive then.
# System: P388 leukemia ip, CD2F1 mice, survival T/C
# Experiment: NCI In Vivo Anticancer Drug Screen. Data for tumor model P388 Leukemia (intraperitoneal) in CD2F1 (CDF1) mice
# Conditions: T/C endpoint: median survival time, higher T/C = longer survival
# [1] = dose: 50.0 mg/kg/injection, schedule: Q01DX005 (ip), vehicle: Klucel (hydroxypropylcellulose) (HPC)
# [2] = dose: 100.0 mg/kg/injection, schedule: Q01DX005 (ip), vehicle: Klucel (hydroxypropylcellulose) (HPC)
# [3] = dose: 200.0 mg/kg/injection, schedule: Q01DX005 (ip), vehicle: Klucel (hydroxypropylcellulose) (HPC)
# [4] = dose: 200.0 mg/kg/injection, schedule: Q01DX009 (ip), vehicle: saline with Tween-80
# [5] = dose: 240.0 mg/kg/injection, schedule: Q01DX005 (ip), vehicle: Klucel (hydroxypropylcellulose) (HPC)
# [6] = dose: 50.0 mg/kg/injection, schedule: Q01DX009 (ip), vehicle: saline with Tween-80
# [7] = dose: 240.0 mg/kg/injection, schedule: Q01DX005 (ip), vehicle: saline with Tween-80
compound,measurement,setting,value
COc1cc(C2c3cc4c(cc3C(OC3CCCCO3)C3COC(=O)C23)OCO4)cc(OC)c1OC (stereo unspecified),T/C,"dose: 6.25 mg/kg/injection, schedule: Q01DX005 (ip), vehicle: Klucel (hydroxypropylcellulose) (HPC)",129 and 131 % of control
same,T/C,"dose: 12.5 mg/kg/injection, schedule: Q01DX005 (ip), vehicle: Klucel (hydroxypropylcellulose) (HPC)",133 and 149 % of control
same,survivor count,"dose: 25.0 mg/kg/injection, schedule: Q01DX005 (ip), vehicle: Klucel (hydroxypropylcellulose) (HPC)",1 of 6 and 4 of 6
same,survivor count,[1],0 of 6
same,survivor count,[2],0 of 6
same,survivor count,[3],0 of 6
OCc1ccc(Cl)cc1O,survivor count,"dose: 400.0 mg/kg/injection, schedule: Q01DX009 (ip), vehicle: distilled water + Tween-80",3 of 6
C/C(=N\NC(=S)Nc1ccc(N(C)C)cc1)c1ccccn1,survivor count,[4],4 of 6
C/C=C(\C)C(=O)OC1C(C)C2(O)C(C=C(CO)CC3(O)C(=O)C(C)=CC32)C2C(C)(C)C12OC(=O)CCCCCCCCC (stereo unspecified),T/C,"dose: 0.25 mg/kg/injection, schedule: Q01DX009 (ip), vehicle: saline + alcohol",132 % of control [5 of 6 alive]
COc1cccc2c(Nc3ccc4c(c3)OCO4)c(C(=O)O)cnc12,survivor count,"dose: 240.0 mg/kg/injection, schedule: Q01DX005 (ip), vehicle: Klucel + Tween-80",2 of 6
CC(=Nc1ccc(Cl)cc1N)c1c(O)cc(C)oc1=O,survivor count,[5],3 of 6
Nc1ncnc2c1CCc1ccccc1-2,survivor count,"dose: 400.0 mg/kg/injection, schedule: Q04DX002 (ip), vehicle: saline with Tween-80",1 of 6
Cn1c(=O)c2c(ncn2Cc2ccc(O)c([N+](=O)[O-])c2)n(C)c1=O,survivor count,[1],6 of 6
CCOC(=O)/C=C(/C)Sc1cc(O)c2ccccc2c1O,survivor count,"dose: 12.5 mg/kg/injection, schedule: Q01DX009 (ip), vehicle: saline with Tween-80",2 of 6
same,survivor count,"dose: 25.0 mg/kg/injection, schedule: Q01DX009 (ip), vehicle: saline with Tween-80",1 of 6
same,survivor count,[6],0 of 6
same,survivor count,"dose: 100.0 mg/kg/injection, schedule: Q01DX009 (ip), vehicle: saline with Tween-80",0 of 6
same,survivor count,[4],0 of 6
CCCCN=Cc1ccccc1O.CCCCN=Cc1ccccc1O.[Cu],survivor count,[2],3 of 6
same,survivor count,[3],0 of 6
CC(=O)NC(SC12CC3CC(CC(C3)C1)C2)C(/C=C/CC=O)OC(C)=O (stereo unspecified),survivor count,"dose: 100.0 mg/kg/injection, schedule: Q04DX003 (ip), vehicle: Klucel (hydroxypropylcellulose) (HPC)",5 of 6
same,survivor count,"dose: 200.0 mg/kg/injection, schedule: Q04DX003 (ip), vehicle: Klucel (hydroxypropylcellulose) (HPC)",0 of 6
same,survivor count,"dose: 400.0 mg/kg/injection, schedule: Q04DX003 (ip), vehicle: Klucel (hydroxypropylcellulose) (HPC)",0 of 6
O=C(CI)NCCNc1cccc2c(S(=O)(=O)O)cccc12,survivor count,[6],5 of 6
same,survivor count,[4],4 of 6
COc1ccc(C(C)(C)c2cc3c(cc2OC)OCO3)cc1,T/C,"dose: 60.0 mg/kg/injection, schedule: Q01DX005 (ip), vehicle: saline with Tween-80",125 % of control
same,T/C,"dose: 120.0 mg/kg/injection, schedule: Q01DX005 (ip), vehicle: saline with Tween-80",125 % of control
same,survivor count,[7],1 of 6 and 5 of 6
NNC(=O)C(=O)Nc1nccs1,survivor count,[7],0 of 6
CSCNC(=S)Nc1ccc(Cl)c(Cl)c1,survivor count,[4],6 of 6
CCCCCCCCCCCCCCCCCC(=O)CC(=O)C(F)(F)F (tested in a mixture with another compound),survivor count,[4],2 of 6
CCOc1n[n+]([O-])c(Cl)cc1[N+](=O)[O-],survivor count,[4],2 of 6
Cc1sc(NCc2ccccc2)c(C#N)c1C,survivor count,"dose: 50.0 mg/kg/injection, schedule: Q01DX009 (ip), vehicle: Klucel (hydroxypropylcellulose) (HPC)",4 of 6
same,survivor count,"dose: 200.0 mg/kg/injection, schedule: Q01DX009 (ip), vehicle: Klucel (hydroxypropylcellulose) (HPC)",6 of 6
CN(CN(C)N=Nc1ccc(Br)cc1)CN(C)N=Nc1ccc(Br)cc1,survivor count,[5],6 of 6
CCCCCN(CCCCC)C(C)C(O)c1ccc2cc(Cl)c3ccccc3c2c1 (stereo unspecified),survivor count,"dose: 200.0 mg/kg/injection, schedule: Q01DX005 (ip), vehicle: saline with Tween-80",1 of 5
